Results are given in words; binding and its absence hold for the method and conditions named. In cells and extracts the contact can be indirect. Some results given as binding are weak or reduced against the parent protein; the word gives no strength. For part of these data: Tags and fused reporters may be left off the sequences shown.
T1: Kv2.1 α-subunit (UniProt P15387)
T1 sequence: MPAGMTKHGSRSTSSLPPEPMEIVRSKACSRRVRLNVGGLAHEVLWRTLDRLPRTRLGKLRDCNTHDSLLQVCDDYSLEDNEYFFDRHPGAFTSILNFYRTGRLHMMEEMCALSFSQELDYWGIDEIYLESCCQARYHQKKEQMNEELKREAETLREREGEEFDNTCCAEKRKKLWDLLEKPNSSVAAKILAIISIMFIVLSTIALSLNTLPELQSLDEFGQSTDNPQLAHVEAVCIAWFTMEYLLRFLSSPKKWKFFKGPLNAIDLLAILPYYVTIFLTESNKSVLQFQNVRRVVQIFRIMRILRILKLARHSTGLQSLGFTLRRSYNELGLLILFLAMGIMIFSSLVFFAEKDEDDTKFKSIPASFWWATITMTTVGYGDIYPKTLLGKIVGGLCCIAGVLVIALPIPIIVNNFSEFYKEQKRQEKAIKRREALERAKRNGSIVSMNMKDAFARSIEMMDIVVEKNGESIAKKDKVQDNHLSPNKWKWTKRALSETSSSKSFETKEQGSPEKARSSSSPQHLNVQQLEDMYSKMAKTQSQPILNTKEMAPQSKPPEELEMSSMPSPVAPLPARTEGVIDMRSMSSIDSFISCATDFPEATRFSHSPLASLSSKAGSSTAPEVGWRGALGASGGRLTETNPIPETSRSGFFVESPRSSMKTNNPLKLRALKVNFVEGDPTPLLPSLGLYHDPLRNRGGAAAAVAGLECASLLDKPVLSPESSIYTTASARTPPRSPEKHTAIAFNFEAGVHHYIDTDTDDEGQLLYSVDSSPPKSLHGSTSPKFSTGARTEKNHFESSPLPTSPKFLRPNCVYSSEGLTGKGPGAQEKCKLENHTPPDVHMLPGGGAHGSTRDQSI

T2: Kv2.1-CsfGFP (UniProt P15387)
T2 sequence: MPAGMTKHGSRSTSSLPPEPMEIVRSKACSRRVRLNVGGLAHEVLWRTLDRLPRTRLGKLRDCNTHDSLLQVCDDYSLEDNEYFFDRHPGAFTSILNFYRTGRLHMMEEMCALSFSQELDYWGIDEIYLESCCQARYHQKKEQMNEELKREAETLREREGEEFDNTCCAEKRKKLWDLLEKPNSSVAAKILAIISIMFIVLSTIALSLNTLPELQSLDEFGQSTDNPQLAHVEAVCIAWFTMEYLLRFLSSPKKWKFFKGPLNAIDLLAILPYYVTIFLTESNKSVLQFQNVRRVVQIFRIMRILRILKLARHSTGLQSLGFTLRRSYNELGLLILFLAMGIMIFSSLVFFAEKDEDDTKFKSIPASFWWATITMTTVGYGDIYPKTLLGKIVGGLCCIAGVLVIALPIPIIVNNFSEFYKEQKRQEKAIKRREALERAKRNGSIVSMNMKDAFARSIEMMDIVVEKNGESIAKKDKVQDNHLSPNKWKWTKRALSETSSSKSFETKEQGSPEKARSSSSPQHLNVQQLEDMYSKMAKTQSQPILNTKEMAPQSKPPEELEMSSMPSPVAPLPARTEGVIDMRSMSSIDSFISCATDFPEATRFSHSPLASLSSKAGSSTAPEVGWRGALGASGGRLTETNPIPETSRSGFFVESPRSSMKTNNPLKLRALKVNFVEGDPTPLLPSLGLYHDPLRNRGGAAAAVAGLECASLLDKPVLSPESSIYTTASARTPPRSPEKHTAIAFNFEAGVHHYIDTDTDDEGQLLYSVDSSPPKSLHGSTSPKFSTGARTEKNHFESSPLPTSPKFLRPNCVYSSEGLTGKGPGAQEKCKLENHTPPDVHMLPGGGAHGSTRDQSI

T3: flotillin-2-CsfGFP (UniProt Q14254)
T3 sequence: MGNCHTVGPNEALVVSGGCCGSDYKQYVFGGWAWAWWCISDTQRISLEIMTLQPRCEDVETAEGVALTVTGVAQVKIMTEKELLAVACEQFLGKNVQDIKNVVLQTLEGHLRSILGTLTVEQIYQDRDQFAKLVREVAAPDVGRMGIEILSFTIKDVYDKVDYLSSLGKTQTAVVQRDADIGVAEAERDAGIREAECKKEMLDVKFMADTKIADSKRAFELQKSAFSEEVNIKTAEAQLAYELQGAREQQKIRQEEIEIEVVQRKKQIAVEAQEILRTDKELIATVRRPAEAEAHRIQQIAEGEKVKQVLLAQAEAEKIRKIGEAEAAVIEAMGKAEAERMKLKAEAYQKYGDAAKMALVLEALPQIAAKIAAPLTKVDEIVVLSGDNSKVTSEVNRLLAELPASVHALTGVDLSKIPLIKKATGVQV


Legend:
Kv2.1 α-subunit = target: T1, Kv2.1 α-subunit; assay: co-IP; anti-Kv2.1 antibody linked to dynabeads protein G; supernatant of lysed HEK-293 cells; eluted fraction blotted by Kv2.1 antibody and anti flotillin-1 antibody
Kv2.1-CsfGFP = target: T2, Kv2.1-CsfGFP; assay: split reporter; BiFC based on superfolder GFP (NsfGFP and CsfGFP fragments); confocal images of living HEK-293 cells, co-transfected, 24 h after transfection
flotillin-2-CsfGFP = target: T3, flotillin-2-CsfGFP; assay: as above

| binding (Kv2.1 α-subunit) | binding (Kv2.1-CsfGFP) | binding (flotillin-2-CsfGFP) | Binder |
| --- | --- | --- | --- |
| binds | – | – | Flotillin-1 (protein, UniProt O75955 1-427) MFFTCGPNEAMVVSGFCRSPPVMVAGGRVFVLPCIQQIQRISLNTLTLNVKSEKVYTRHGVPISVTGIAQVKIQGQNKEMLAAACQMFLGKTEAEIAHIALETLEGHQRAIMAHMTVEEIYKDRQKFSEQVFKVASSDLVNMGISVVSYTLKDIHDDQDYLHSLGKARTAQVQKDARIGEAEAKRDAGIREAKAKQEKVSAQYLSEIEMAKAQRDYELKKAAYDIEVNTRRAQADLAYQLQVAKTKQQIEEQRVQVQVVERAQQVAVQEQEIARREKELEARVRKPAEAERYKLERLAEAEKSQLIMQAEAEAASVRMRGEAEAFAIGARARAEAEQMAKKAEAFQLYQEAAQLDMLLEKLPQVAEEISGPLTSANKITLVSSGSGTMGAAKVTGEVLDILTRLPESVERLTGVSISQVNHKPLRTA |
| – | binds | binds | flotillin-1-NsfGFP (protein, UniProt O75955 1-427) MFFTCGPNEAMVVSGFCRSPPVMVAGGRVFVLPCIQQIQRISLNTLTLNVKSEKVYTRHGVPISVTGIAQVKIQGQNKEMLAAACQMFLGKTEAEIAHIALETLEGHQRAIMAHMTVEEIYKDRQKFSEQVFKVASSDLVNMGISVVSYTLKDIHDDQDYLHSLGKARTAQVQKDARIGEAEAKRDAGIREAKAKQEKVSAQYLSEIEMAKAQRDYELKKAAYDIEVNTRRAQADLAYQLQVAKTKQQIEEQRVQVQVVERAQQVAVQEQEIARREKELEARVRKPAEAERYKLERLAEAEKSQLIMQAEAEAASVRMRGEAEAFAIGARARAEAEQMAKKAEAFQLYQEAAQLDMLLEKLPQVAEEISGPLTSANKITLVSSGSGTMGAAKVTGEVLDILTRLPESVERLTGVSISQVNHKPLRTA |

Source: PMC4887332
